{"sequences": {"note": "The chains behind the UniProt entries cited, without tags or fusion partners. Residues count along the entry.", "UniProt P22301, residues 19-178": "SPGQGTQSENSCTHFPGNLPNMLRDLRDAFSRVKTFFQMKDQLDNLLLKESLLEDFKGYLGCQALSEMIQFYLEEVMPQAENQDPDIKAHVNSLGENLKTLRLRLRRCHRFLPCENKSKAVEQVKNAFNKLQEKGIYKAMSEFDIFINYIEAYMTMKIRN", "UniProt P05231, residues 30-212": "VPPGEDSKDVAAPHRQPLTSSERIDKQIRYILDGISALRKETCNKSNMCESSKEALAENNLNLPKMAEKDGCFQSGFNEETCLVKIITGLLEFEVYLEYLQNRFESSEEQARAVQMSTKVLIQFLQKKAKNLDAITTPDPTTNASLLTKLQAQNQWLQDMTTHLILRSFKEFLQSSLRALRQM", "UniProt P60568, residues 21-153": "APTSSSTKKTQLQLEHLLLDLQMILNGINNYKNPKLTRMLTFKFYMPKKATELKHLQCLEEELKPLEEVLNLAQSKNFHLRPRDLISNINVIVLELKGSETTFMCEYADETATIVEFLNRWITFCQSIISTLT"}, "source": "patent US20190284243A1", "about": "“BINDING PEPTIDES” (University of Copenhagen, priority 2016, published 2019)", "key": {"[1]": {"molecular_target": "T1, β-body (1) … (SEQ ID NO: 57)", "T1 sequence (peptide, with a fluorescent probe (1-F*) or on beads, by assay)": "TYTYTYPGLTRTHT", "experiment": "fluorescent (1) on beads modified with (1), fluorescence microscopy"}, "[2]": {"molecular_target": "T2, β-body (2) … (SEQ ID NO: 58)", "T2 sequence (peptide, with a fluorescent probe (2-F*) or on beads, by assay)": "TTYTYPGDTFTI", "experiment": "fluorescent (1) on beads modified with (2), fluorescence microscopy"}, "[3]": {"molecular_target": "Enhanced Green Fluorescent Protein [GFP: P42212]", "experiment": "Table 1 grade; binding test not described"}, "[4]": {"molecular_target": "Enhanced Green Fluorescent Protein [GFP: P42212]", "experiment": "β-body beads incubated with E. coli lysate"}, "[5]": {"molecular_target": "Enhanced Green Fluorescent Protein [GFP: P42212]", "experiment": "fluorescence microscopy of two bead types incubated with eGFP"}, "[6]": {"molecular_target": "Enhanced Green Fluorescent Protein [GFP: P42212]", "experiment": "β-body beads incubated with E. coli lysate, EGFP 150 µM or 500 nM"}, "[7]": {"molecular_target": "Enhanced Green Fluorescent Protein [GFP: P42212]", "experiment": "fluorescence microscopy of two bead types incubated with 60 nM GFP"}, "[8]": {"molecular_target": "Interleukin 10 (UniProt P22301)", "experiment": "Table 1 grade; context RoxNH"}, "[9]": {"molecular_target": "Interleukin 6 (UniProt P05231)", "experiment": "Table 1 grade; context Bead"}, "[10]": {"molecular_target": "Interleukin 6 (UniProt P05231)", "experiment": "sandwich assay on PEGA beads, 20 nM IL6, 20 min"}, "[11]": {"molecular_target": "Interleukin 6 (UniProt P05231)", "experiment": "sandwich assay on PEGA beads, 20 nM IL6, 100 nM peptide F, ROX fluorescence"}, "[12]": {"molecular_target": "T1, β-body (1) … (SEQ ID NO: 57)", "experiment": "fluorescent (2) on beads modified with (1), fluorescence microscopy"}, "[13]": {"molecular_target": "T2, β-body (2) … (SEQ ID NO: 58)", "experiment": "fluorescent (2) on beads modified with (2), fluorescence microscopy"}, "[14]": {"molecular_target": "Interleukin 6 (UniProt P05231)", "experiment": "Table 1 grade; context RoxNH"}, "[15]": {"molecular_target": "Interleukin 10 (UniProt P22301)", "experiment": "Table 1 grade; context Bead"}, "[16]": {"molecular_target": "Interleukin 2 (UniProt P60568)", "experiment": "Table 1 grade; context Bead"}, "[17]": {"molecular_target": "Interleukin 2 (UniProt P60568)", "experiment": "sandwich assay on PEGA beads"}, "[18]": {"molecular_target": "Interleukin 2 (UniProt P60568)", "experiment": "sandwich assay on PEGA beads, 50 nM IL2, 100 nM peptide D, ROX fluorescence"}, "[19]": {"molecular_target": "Interleukin 2 (UniProt P60568)", "experiment": "Table 1 grade; context RoxNH"}}, "note": "No constants are given. Whether binding was seen depends on the method and setting. Some results given as binding are weak or reduced against the parent protein; the word gives no strength."}
{"binder": "TYTYTYPGLTRTHT (designed binder, with a fluorescent probe (1-F*) or on beads, by assay)", "note": "[β-body (1) … (SEQ ID NO: 57)]", "values": [{"measurement": "binding", "setting": "[1]", "value": "binds"}, {"measurement": "binding", "setting": "[2]", "value": "binds"}]}
{"binder": "TETKTVTITRPKMTWTFTHTVTG (designed binder)", "note": "[β-body SEQ ID NO: 1 (…)]", "values": [{"measurement": "binding", "setting": "[3]", "value": "binds"}, {"measurement": "binding", "setting": "[4]", "value": "binds"}, {"measurement": "binding", "setting": "[5]", "value": "binds"}, {"measurement": "binding", "setting": "[6]", "value": "binds"}, {"measurement": "binding", "setting": "[7]", "value": "binds"}]}
{"binder": "TKTRTYTIPGERYTDTWA (designed binder)", "note": "[β-body SEQ ID NO: 21 (…)]", "values": [{"measurement": "binding", "setting": "[8]", "value": "binds"}]}
{"binder": "TMTDTDTYPGFTDTLTHA (designed binder, linked to the fluorophore RhodamineX (Example 3))", "note": "[Ligand 6: … (SEQ ID NO: 16) linked to the fluorophore RhodamineX]", "values": [{"measurement": "binding", "setting": "[9]", "value": "binds"}, {"measurement": "binding", "setting": "[10]", "value": "binds"}, {"measurement": "binding", "setting": "[11]", "value": "binds"}]}
{"binder": "TTYTYPGDTFTI (designed binder, with a fluorescent probe (2-F*) or on beads, by assay)", "note": "[β-body (2) … (SEQ ID NO: 58)]", "values": [{"measurement": "binding", "setting": "[12]", "value": "binds"}, {"measurement": "binding", "setting": "[13]", "value": "binds"}]}
{"binder": "HTWTDTLTRPGYTVTHTLTL (designed binder, attached to PEGA1900 bead via hydroxymethylbenzamide (HMBA) linker (Example 3))", "note": "[Ligand 5: … (SEQ ID NO: 17) linked to PEGA1900-beads]", "values": [{"measurement": "binding", "setting": "[14]", "value": "binds"}, {"measurement": "binding", "setting": "[10]", "value": "binds"}, {"measurement": "binding", "setting": "[11]", "value": "binds"}]}
{"binder": "ATNTLTMTWPGRTNTDTFTW (designed binder)", "note": "[β-body SEQ ID NO: 20 (…)]", "values": [{"measurement": "binding", "setting": "[15]", "value": "binds"}]}
{"binder": "TRTLTYTEPGITQTKTEA (designed binder, linked to the fluorophore RhodamineX (Example 3))", "note": "[Ligand 4: … (SEQ ID NO: 14) linked to the fluorophore RhodamineX]", "values": [{"measurement": "binding", "setting": "[16]", "value": "binds"}, {"measurement": "binding", "setting": "[17]", "value": "binds"}, {"measurement": "binding", "setting": "[18]", "value": "binds"}]}
{"binder": "NTVTNTMTRPGVTETVTQTD (designed binder, attached to PEGA1900 bead via hydroxymethylbenzamide (HMBA) linker (Example 3))", "note": "[Ligand 3: … (SEQ ID NO: 15) on PEGA1900 resin beads]", "values": [{"measurement": "binding", "setting": "[19]", "value": "binds"}, {"measurement": "binding", "setting": "[17]", "value": "binds"}, {"measurement": "binding", "setting": "[18]", "value": "binds"}]}
